Test results as given in the supplement of paper PMC11732987, “Enantioselective OTUD7B fragment discovery through chemoproteomics screening and high-throughput optimisation” (Communications Chemistry, 2025).
The list shows a part of the results. The data scatter; read single values as rough.

The chains behind the UniProt entries cited, without tags or fusion partners. Where a name states a change or a piece, a line headed by the entry shows the natural chain unless it says otherwise. Residues count along the entry.
UniProt Q9ULU4, 1061-1084: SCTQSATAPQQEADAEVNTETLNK
UniProt Q9H2Y7: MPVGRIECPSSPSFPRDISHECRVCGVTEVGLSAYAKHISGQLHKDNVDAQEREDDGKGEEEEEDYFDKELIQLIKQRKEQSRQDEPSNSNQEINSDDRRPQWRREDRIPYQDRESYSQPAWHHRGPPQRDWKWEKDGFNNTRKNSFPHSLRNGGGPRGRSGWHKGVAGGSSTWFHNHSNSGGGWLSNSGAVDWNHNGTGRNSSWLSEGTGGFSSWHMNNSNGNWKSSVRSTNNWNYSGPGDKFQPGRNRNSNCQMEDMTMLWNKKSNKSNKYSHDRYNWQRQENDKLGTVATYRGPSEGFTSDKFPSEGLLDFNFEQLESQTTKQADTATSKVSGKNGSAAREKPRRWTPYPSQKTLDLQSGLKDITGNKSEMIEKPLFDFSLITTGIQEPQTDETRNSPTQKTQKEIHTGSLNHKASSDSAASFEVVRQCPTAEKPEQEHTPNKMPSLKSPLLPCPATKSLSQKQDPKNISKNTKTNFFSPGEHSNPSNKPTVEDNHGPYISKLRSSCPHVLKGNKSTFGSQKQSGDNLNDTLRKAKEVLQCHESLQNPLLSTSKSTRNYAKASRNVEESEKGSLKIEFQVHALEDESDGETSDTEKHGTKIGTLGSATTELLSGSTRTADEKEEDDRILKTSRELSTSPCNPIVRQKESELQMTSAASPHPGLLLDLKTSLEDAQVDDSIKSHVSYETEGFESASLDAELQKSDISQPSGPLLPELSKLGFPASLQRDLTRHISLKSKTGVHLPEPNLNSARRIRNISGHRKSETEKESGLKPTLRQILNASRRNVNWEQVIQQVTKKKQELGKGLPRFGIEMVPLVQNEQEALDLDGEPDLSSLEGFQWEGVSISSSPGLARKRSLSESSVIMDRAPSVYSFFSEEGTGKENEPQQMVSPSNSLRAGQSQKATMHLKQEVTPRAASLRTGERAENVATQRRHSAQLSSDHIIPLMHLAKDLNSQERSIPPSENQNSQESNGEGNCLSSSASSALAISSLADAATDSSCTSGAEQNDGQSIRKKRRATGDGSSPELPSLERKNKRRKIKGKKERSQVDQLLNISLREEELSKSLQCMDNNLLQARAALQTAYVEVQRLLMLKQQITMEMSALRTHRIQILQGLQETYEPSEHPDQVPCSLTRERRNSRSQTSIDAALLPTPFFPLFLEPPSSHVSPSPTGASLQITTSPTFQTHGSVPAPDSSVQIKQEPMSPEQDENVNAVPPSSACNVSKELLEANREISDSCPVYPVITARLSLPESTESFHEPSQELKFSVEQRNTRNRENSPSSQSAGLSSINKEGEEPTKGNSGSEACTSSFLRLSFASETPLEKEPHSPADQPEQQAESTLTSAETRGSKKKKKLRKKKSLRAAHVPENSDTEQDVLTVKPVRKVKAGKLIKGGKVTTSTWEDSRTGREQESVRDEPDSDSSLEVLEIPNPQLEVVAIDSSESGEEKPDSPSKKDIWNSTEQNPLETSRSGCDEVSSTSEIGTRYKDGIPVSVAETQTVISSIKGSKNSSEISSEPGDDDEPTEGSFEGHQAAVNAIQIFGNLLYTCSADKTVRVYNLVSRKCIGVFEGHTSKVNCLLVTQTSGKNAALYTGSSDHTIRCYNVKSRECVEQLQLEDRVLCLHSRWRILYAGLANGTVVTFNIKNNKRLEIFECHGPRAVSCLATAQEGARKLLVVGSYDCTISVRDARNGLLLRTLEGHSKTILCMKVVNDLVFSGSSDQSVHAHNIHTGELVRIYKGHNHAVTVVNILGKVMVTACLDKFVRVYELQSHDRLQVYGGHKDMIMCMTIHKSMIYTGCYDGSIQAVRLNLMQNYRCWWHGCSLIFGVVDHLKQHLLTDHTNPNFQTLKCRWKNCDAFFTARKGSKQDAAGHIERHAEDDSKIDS
UniProt Q86WB0: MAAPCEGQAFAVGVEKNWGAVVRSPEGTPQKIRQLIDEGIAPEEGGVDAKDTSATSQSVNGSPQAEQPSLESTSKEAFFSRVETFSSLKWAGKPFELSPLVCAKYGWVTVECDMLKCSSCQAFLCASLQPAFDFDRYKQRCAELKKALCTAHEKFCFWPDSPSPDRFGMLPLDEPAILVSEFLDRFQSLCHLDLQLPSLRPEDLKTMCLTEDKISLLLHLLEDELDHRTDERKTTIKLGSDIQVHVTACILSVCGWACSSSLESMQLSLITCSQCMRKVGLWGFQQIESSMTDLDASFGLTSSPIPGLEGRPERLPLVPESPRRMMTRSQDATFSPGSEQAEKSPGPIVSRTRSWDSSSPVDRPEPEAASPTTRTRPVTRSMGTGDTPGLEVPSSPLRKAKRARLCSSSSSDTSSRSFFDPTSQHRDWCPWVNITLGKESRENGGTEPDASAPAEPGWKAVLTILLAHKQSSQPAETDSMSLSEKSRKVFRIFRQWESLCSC
UniProt Q9H4I2: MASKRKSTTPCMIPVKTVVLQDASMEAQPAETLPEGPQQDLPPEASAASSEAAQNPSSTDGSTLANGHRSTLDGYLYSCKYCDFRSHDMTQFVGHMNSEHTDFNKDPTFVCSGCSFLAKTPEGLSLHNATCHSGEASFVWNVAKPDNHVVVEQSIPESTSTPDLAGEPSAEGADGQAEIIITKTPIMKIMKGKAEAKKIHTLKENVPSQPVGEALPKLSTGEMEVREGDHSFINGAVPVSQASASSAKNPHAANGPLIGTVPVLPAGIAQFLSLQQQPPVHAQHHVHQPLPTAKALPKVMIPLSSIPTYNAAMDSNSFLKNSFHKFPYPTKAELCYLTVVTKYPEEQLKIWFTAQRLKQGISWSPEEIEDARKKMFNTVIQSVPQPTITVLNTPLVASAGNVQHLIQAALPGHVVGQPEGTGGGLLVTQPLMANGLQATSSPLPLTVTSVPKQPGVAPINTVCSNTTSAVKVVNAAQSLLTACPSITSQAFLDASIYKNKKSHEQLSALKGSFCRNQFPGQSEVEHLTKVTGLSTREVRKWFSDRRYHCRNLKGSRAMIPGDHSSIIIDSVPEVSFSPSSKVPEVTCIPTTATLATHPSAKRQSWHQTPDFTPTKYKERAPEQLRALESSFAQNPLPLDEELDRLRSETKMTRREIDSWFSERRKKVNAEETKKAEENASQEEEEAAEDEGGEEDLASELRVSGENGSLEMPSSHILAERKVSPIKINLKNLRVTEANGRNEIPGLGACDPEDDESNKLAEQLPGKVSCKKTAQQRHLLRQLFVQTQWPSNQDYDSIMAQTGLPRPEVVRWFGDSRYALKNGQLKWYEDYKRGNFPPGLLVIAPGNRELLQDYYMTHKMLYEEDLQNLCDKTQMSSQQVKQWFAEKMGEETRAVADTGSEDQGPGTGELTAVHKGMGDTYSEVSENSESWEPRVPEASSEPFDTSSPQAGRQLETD
UniProt Q16600, 120-144: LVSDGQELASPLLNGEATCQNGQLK
UniProt Q6NZY4, 590-609: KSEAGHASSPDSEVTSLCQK
UniProt Q96H79: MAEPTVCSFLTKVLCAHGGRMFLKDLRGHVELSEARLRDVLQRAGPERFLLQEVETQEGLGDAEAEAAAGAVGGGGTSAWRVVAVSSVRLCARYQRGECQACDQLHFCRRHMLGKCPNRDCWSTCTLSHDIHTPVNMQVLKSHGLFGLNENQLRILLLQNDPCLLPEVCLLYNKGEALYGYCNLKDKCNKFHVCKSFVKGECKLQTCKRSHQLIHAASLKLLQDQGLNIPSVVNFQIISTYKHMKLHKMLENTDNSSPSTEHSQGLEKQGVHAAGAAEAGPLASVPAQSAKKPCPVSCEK
UniProt O60293: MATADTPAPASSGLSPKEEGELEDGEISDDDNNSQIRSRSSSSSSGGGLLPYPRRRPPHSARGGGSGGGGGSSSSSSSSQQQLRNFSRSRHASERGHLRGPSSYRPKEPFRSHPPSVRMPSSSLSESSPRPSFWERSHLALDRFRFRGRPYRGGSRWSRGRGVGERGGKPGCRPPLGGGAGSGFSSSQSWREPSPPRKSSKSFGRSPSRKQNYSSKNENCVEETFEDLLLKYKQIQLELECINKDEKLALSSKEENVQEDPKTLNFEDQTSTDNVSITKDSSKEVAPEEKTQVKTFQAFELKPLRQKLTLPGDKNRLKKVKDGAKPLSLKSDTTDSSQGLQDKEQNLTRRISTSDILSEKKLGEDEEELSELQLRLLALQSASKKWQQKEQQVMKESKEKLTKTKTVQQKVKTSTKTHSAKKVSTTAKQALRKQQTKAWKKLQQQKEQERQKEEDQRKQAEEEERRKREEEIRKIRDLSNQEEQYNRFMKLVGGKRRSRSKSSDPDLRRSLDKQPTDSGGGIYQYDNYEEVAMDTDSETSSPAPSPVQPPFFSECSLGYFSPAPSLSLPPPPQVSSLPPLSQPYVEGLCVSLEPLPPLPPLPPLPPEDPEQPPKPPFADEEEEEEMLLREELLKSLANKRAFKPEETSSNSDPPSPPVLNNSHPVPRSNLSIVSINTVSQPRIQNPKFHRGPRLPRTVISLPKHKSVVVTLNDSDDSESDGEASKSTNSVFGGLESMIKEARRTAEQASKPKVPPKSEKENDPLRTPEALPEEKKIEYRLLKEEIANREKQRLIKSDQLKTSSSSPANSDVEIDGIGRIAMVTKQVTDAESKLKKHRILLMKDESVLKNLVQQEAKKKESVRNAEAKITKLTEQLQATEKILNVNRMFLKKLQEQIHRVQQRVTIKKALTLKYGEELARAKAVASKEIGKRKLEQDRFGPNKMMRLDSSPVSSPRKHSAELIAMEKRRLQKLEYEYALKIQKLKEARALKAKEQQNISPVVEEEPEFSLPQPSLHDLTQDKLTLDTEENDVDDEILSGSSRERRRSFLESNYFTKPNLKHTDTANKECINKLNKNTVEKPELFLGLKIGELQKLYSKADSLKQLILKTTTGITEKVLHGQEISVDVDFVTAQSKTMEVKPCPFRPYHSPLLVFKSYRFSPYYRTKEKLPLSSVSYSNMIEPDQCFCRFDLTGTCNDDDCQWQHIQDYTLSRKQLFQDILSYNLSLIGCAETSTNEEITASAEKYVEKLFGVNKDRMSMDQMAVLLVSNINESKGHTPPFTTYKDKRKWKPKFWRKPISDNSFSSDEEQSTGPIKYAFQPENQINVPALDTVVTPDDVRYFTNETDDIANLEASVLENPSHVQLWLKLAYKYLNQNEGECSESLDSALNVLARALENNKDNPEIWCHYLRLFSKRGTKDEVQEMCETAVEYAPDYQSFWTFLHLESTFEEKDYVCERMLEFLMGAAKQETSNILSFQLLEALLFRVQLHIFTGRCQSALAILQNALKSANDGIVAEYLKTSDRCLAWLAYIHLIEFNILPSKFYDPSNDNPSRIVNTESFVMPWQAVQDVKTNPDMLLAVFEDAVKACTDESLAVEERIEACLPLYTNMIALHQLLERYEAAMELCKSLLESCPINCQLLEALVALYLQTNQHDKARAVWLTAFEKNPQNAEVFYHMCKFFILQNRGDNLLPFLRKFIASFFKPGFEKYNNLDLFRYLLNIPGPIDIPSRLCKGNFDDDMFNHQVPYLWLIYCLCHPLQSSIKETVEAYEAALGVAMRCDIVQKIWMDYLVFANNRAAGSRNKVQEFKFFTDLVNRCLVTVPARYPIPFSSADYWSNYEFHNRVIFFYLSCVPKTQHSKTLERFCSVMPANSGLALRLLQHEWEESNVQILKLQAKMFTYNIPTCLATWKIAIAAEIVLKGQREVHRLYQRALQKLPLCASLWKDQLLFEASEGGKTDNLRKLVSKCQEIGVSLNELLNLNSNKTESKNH
UniProt O95159: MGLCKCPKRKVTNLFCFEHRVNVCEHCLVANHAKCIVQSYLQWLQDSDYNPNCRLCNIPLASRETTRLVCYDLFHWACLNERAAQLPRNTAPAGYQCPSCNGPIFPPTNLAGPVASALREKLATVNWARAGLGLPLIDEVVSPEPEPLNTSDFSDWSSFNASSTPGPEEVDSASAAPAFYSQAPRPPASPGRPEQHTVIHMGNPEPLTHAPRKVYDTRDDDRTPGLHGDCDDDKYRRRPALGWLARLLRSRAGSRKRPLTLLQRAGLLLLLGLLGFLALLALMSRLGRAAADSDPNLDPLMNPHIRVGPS
UniProt Q9UJN7: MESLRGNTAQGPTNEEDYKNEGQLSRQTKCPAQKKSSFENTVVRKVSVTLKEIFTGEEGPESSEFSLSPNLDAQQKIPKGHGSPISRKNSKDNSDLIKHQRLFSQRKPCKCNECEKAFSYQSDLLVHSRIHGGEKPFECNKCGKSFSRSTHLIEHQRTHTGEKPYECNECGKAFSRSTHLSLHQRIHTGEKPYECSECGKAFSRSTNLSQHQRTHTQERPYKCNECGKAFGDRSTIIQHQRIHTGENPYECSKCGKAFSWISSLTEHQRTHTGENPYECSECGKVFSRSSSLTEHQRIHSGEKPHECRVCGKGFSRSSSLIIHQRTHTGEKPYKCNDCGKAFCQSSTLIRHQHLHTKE
UniProt Q6FIF0: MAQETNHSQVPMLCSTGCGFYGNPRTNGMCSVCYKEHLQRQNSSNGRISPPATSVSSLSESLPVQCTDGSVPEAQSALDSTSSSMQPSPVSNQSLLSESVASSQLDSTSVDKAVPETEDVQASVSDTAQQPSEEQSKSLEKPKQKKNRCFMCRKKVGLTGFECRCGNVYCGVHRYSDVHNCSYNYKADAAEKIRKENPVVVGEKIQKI
UniProt Q9UGR2, 142-162: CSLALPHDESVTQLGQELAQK

The targets below were run with ClCC(=O)N[C@H]1CCCc2ccccc12 (assay: log2 mean competition ratio of IA-DTB cysteine labelling (DMSO/compound) (log2 ratio); higher = stronger cysteine engagement by compound). Settings: 200 µM; treatment time: 4 h; cell line lysate: HEK293T.
Procedure: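 IA-DTB competitive cysteine chemoproteomics in HEK293T RIPA lysate. Lysates were treated with compound 29 or 30 at 50 or 200 µM for 4 h, then IA-DTB (500 µM, 1 h), trypsin-digested, NeutrAvidin-enriched and analysed by diaPASEF. Competition ratio = intensity DMSO / intensity compound (n=4 treated, n=64 DMSO); binding: mean log2 CR ≥ 1 and p ≤ 0.05 plus QC filters. Target is the cysteine site.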
With ZFHX4 C964 (UniProt Q86UP3) the “log2 mean competition ratio” value was 0.127.
In the case of ZNF24 C233 (UniProt P17028), the “log2 mean competition ratio” value is reported as 0.121.
ZNF280C C734 (UniProt Q8ND82) was tested, and the “log2 mean competition ratio” value was 0.0282.
With ZMYND8 C1062 (UniProt Q9ULU4) the “log2 mean competition ratio” value was -0.251.
ZDHHC18 C156 (UniProt Q9NUE0) was tested, and the “log2 mean competition ratio” value was 0.0281.
In the case of ZNF106 C457 (UniProt Q9H2Y7), the “log2 mean competition ratio” value is reported as -0.00951.
In the case of ZNF704 C55, the “log2 mean competition ratio” value is reported as -0.0572.
For ZC3HC1 C149 (UniProt Q86WB0), the “log2 mean competition ratio” value was -0.318.
For ZHX3 C11 (UniProt Q9H4I2), the “log2 mean competition ratio” value was -0.317.
For ZNF302 C274, the “log2 mean competition ratio” value was 0.181.
ZFAND5 C168 (UniProt O76080) was tested, and the “log2 mean competition ratio” value was 0.217.
ZNF335 C982 (UniProt Q9H4Z2) was tested, and the “log2 mean competition ratio” value was -0.0896.
With ZNF239 C138 (UniProt Q16600) the “log2 mean competition ratio” value was -0.445.
With ZEB2 C140 (UniProt O60315) the “log2 mean competition ratio” value was -0.283.
With ZCCHC8 C607 (UniProt Q6NZY4) the “log2 mean competition ratio” value was 0.0576.
ZSWIM9 C403 was tested, and the “log2 mean competition ratio” value was 0.613.
With ZNF24 C189 (UniProt P17028) the “log2 mean competition ratio” value was 0.00621.
With ZNF607 C460 the “log2 mean competition ratio” value was 0.284.
ZC3HAV1L C182 (UniProt Q96H79) was tested, and the “log2 mean competition ratio” value was -0.415.
With ZNF318 C140 (UniProt Q5VUA4) the “log2 mean competition ratio” value was 0.155.
ZFC3H1 C1816 (UniProt O60293) was tested, and the “log2 mean competition ratio” value was -0.0634.
With ZNF618 C619 the “log2 mean competition ratio” value was 0.0102.
For ZFPL1 C230 (UniProt O95159), the “log2 mean competition ratio” value was -0.123.
For ZNF446 C33, the “log2 mean competition ratio” value was 0.0127.
With ZNF391 C343 (UniProt Q9UJN7) the “log2 mean competition ratio” value was 0.727.
With ZNF512B C129 (UniProt Q96KM6) the “log2 mean competition ratio” value was -0.2.
In the case of ZFAND6 C181 (UniProt Q6FIF0), the “log2 mean competition ratio” value is reported as -0.0874.
In the case of ZNF644 C202 (UniProt Q9H582), the “log2 mean competition ratio” value is reported as 0.272.
For ZNF516 C114 (UniProt Q92618), the “log2 mean competition ratio” value was 0.325.
ZNF239 C167 (UniProt Q16600) was tested, and the “log2 mean competition ratio” value was 0.0738.
In the case of ZNF239 C112 (UniProt Q16600), the “log2 mean competition ratio” value is reported as 0.301.
ZYX C387 (UniProt Q15942) was tested, and the “log2 mean competition ratio” value was -0.345.
In the case of ZNF195 C207, the “log2 mean competition ratio” value is reported as 0.00903.
In the case of ZDBF2 C2333, the “log2 mean competition ratio” value is reported as 0.433.
ZC3H7B C142 (UniProt Q9UGR2) was tested, and the “log2 mean competition ratio” value was 0.0998.
